In assay [1] the target is GST-S5a (UniProt P55036). In words: GST-S5a pull-down from lysates of transfected HEK cells.
In assay [2] the target is TrkA (in PC12 cells) (UniProt P35739). In words: immunoprecipitation of TrkA from NGF-stimulated PC12 cells, immunoblots.

Amino acid sequences for entries named in this document (tags omitted). Residues count along the entry.
UniProt P35739, residues 33-799: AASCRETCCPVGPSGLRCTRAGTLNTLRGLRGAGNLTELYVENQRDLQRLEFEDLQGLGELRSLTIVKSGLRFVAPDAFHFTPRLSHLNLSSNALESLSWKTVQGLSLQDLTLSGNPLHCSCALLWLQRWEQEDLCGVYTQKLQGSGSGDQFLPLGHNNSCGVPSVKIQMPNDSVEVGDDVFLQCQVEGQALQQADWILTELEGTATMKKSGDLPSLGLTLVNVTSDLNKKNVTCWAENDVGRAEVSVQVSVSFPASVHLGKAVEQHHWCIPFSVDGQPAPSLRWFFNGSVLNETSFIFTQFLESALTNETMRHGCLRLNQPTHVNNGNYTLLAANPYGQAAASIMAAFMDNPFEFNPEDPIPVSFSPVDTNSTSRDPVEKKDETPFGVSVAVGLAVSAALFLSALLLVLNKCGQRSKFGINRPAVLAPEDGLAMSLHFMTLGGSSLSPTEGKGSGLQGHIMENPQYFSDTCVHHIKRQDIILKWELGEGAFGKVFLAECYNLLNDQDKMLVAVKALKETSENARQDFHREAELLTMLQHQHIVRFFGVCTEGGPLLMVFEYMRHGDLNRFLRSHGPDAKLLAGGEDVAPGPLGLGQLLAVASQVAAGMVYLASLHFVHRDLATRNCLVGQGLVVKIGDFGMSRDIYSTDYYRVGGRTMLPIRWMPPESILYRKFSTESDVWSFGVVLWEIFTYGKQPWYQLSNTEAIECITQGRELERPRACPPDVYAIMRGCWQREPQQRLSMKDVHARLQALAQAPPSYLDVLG

The results in this text go back to patent US20050130896A1.

No constants are given. Whether binding was seen depends on the method and setting. For some assays here: In cells and extracts the contact can be indirect. Some entries that bind do so weakly or less than the wild type.

Regarding “myc-tagged wild-type (WT) p62; full-length p62 (amino acids 1 to 440) (from UniProt Q13501 1-440)”, the binding entry in assay [1] is “binds”.
As to “p62 (in PC12 cells) (from UniProt O08623 2-439)”, the binding result in assay [2] is reported as “binds”.
